Results deposited as PubChem BioAssay AID1159508 (Drosophila RNAi Screening Center, 2015).

Aim: 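Viability reference data for a dsRNA library against RNA-binding protein genes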
Cells: Drosophila S2R+ cells
Knock-down reagent: long dsRNA against Drosophila genes
Duration: 5 days
Read-out: 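Luminescent ATP signal as a proxy for cell fitness after 5 days of RNAi, given as a z-score in each replicate and averaged over replicates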
Direction: mean ATP z-score and ATP z-score: higher = more total ATP luminescence
Rule for the call: In these data the active calls have mean ATP z-score at about -2 or lower, or at about 2 or higher
Calls: active = strong ATP change (up or down); inactive = no strong ATP change
The whole screen tested 812 reagents; shown is a random part of them. Over the whole deposit, 18 (2.2%) were called active. 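Calls include both increased and decreased ATP; roughly one in four reagents has no third replicate value.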 A number with no mark means an inactive call. Not given: the amount of reagent.

target | amplicon | mean ATP z-score | ATP z-score, replicate 1 | ATP z-score, replicate 2 | ATP z-score, replicate 3
eEF1delta | DRSC26084 | 0.598 | 0.479 | 0.511 | 0.688
eEF1delta | DRSC32461 | -0.179 | -0.283 | -0.243 | 0.0243
Pus7 | DRSC10703 | 0.0873 | -0.389 | 0.00449 | 0.629
Pus7 | DRSC27484 | -0.699 | -0.922 | -0.663 | -0.379
Rb97D | DRSC33092 | 0.119 | -0.298 | 0.111 | 0.52
Rb97D | DRSC33093 | 0.0307 | -0.151 | 0.0969 | 0.14
eIF3g1 | DRSC29282 | 1.46 | 0.605 | 0.781 | 2.71
eIF3g1 | DRSC32087 | 0.142 | -0.123 | -0.122 | 0.645
Su(var)2-10 | DRSC28335 | -0.519 | -0.574 | -0.397 | –
Su(var)2-10 | DRSC33201 | 2.15 (active) | 1.53 | 1.88 | 2.62
mEFTs | DRSC02953 | -0.23 | -0.56 | -0.0519 | -0.0332
mEFTs | DRSC30019 | 0.406 | 0.0919 | 0.26 | 0.787
Dbp45A | DRSC07395 | 0.256 | 0.228 | 0.251 | –
Dbp45A | DRSC42640 | 0.783 | 0.0799 | 1.01 | 1.11
Nop60B | DRSC04627 | -0.972 | -0.95 | -0.92 | -0.858
Nop60B | DRSC38551 | 0.0861 | -0.0616 | -0.0367 | 0.34
snRNP-U1-C | DRSC15804 | 0.0916 | -0.102 | 0.274 | –
snRNP-U1-C | DRSC30973 | 0.0904 | -0.00301 | 0.061 | 0.196
Dcr-1 | DRSC15646 | 0.585 | 0.158 | 0.243 | 1.24
Dcr-1 | DRSC27421 | -0.589 | -0.664 | -0.438 | –
AGO3 | DRSC21386 | -0.0049 | -0.366 | -0.0563 | 0.409
AGO3 | DRSC42716 | 0.207 | 0.0325 | 0.182 | 0.366
Rbp4 | DRSC16818 | -0.155 | -0.16 | -0.13 | –
Rbp4 | DRSC27818 | -0.173 | -0.214 | -0.109 | –
SmE | DRSC02680 | 0.177 | -0.431 | -0.183 | 1.11
SmE | DRSC31785 | 1.17 | -0.573 | 0.859 | 3.01
Srp68 | DRSC28655 | 3.87 (active) | 2.9 | 4.33 | –
Srp68 | DRSC36443 | -0.00714 | -0.166 | -0.145 | 0.29
mxt | DRSC00551 | 1.11 | 0.63 | 0.86 | 1.61
mxt | DRSC25001 | -0.223 | -0.368 | -0.135 | -0.124
U2af50 | DRSC20297 | -0.589 | -0.782 | -0.545 | -0.328
U2af50 | DRSC37266 | -0.608 | -0.956 | -0.563 | -0.189
CG4612 | DRSC04478 | -0.139 | -0.151 | -0.141 | -0.099
CG4612 | DRSC42486 | -0.589 | -0.555 | -0.548 | –
Sbp2 | DRSC10766 | 0.357 | 0.278 | 0.344 | 0.379
Sbp2 | DRSC42715 | -0.393 | -0.667 | -0.631 | 0.195
CG31156 | DRSC15753 | 0.101 | -0.523 | 0.713 | –
CG31156 | DRSC15755 | -0.269 | -0.351 | -0.203 | -0.201
CG32344 | DRSC32057 | -0.00408 | -0.372 | -0.0645 | 0.426
CG32344 | DRSC32058 | -0.323 | -0.509 | -0.0957 | –
Pabp2 | DRSC07501 | 0.289 | 0.152 | 0.389 | –
Pabp2 | DRSC34289 | -0.498 | -0.546 | -0.446 | -0.408
CG14718 | DRSC14941 | -0.0372 | -0.321 | 0.0317 | 0.185
CG14718 | DRSC42697 | 0.632 | -0.281 | 0.675 | 1.38
Srp54k | DRSC41411 | -0.208 | -0.395 | 0.00465 | –
Srp54k | DRSC42223 | 1.17 | 0.209 | 0.508 | 2.57
l(1)G0004 | DRSC20486 | -0.605 | -0.822 | -0.638 | -0.24
l(1)G0004 | DRSC42650 | 0.0133 | -0.224 | -0.217 | 0.478
eIF3i | DRSC32224 | 0.901 | 0.769 | 0.856 | 0.905
eIF3i | DRSC32225 | 0.2 | -0.281 | 0.217 | 0.627
nxf2 | DRSC10403 | 0.543 | 0.207 | 0.252 | 1.06
nxf2 | DRSC26721 | -0.242 | -0.718 | -0.556 | 0.594
apt | DRSC32019 | 0.991 | 0.298 | 0.872 | 1.61
apt | DRSC32020 | 1.2 | 0.0686 | 0.982 | 2.33
Hel25E | DRSC28348 | 1.1 | 1.02 | 1.04 | –
Hel25E | DRSC30680 | 0.631 | 0.5 | 0.62 | 0.652
CG3594 | DRSC21959 | -0.332 | -0.507 | -0.361 | -0.0635
CG3594 | DRSC35710 | -0.16 | -0.609 | -0.263 | 0.422
ps | DRSC16388 | 0.608 | 0.319 | 0.499 | 0.889
ps | DRSC29315 | 0.517 | 0.459 | 0.508 | –

Entries listed so far marked active (2):
target | amplicon | mean ATP z-score | ATP z-score, replicate 1 | ATP z-score, replicate 2 | ATP z-score, replicate 3
Su(var)2-10 | DRSC33201 | 2.15 (active) | 1.53 | 1.88 | 2.62
Srp68 | DRSC28655 | 3.87 (active) | 2.9 | 4.33 | –
